Data taken from the supplement of paper PMC10849652.
The other results are listed elsewhere or left out.

Protein sequences, listed by entry. Tags and fused reporters are not part of them. Lines headed by an entry give the natural chain unless they say otherwise; changes in a name come on top.
UniProt P62937, whole entry, looked up: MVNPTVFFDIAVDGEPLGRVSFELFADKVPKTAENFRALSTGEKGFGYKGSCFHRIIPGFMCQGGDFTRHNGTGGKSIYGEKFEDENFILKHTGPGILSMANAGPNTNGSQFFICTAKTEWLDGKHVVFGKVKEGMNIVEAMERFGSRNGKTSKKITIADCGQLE
UniProt O75688: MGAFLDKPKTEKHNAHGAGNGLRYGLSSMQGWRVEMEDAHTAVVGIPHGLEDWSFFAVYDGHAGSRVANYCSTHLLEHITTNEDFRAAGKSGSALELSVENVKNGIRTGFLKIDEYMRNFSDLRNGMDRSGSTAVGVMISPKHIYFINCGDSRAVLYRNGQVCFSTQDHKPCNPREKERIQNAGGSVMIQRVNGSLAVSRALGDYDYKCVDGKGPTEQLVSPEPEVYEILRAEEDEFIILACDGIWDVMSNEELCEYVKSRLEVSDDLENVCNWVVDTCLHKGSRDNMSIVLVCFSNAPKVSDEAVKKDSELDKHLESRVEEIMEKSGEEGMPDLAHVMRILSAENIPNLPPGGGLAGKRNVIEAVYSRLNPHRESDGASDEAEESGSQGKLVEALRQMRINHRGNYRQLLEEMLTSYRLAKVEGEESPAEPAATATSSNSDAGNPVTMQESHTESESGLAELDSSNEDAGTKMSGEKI
UniProt O43314: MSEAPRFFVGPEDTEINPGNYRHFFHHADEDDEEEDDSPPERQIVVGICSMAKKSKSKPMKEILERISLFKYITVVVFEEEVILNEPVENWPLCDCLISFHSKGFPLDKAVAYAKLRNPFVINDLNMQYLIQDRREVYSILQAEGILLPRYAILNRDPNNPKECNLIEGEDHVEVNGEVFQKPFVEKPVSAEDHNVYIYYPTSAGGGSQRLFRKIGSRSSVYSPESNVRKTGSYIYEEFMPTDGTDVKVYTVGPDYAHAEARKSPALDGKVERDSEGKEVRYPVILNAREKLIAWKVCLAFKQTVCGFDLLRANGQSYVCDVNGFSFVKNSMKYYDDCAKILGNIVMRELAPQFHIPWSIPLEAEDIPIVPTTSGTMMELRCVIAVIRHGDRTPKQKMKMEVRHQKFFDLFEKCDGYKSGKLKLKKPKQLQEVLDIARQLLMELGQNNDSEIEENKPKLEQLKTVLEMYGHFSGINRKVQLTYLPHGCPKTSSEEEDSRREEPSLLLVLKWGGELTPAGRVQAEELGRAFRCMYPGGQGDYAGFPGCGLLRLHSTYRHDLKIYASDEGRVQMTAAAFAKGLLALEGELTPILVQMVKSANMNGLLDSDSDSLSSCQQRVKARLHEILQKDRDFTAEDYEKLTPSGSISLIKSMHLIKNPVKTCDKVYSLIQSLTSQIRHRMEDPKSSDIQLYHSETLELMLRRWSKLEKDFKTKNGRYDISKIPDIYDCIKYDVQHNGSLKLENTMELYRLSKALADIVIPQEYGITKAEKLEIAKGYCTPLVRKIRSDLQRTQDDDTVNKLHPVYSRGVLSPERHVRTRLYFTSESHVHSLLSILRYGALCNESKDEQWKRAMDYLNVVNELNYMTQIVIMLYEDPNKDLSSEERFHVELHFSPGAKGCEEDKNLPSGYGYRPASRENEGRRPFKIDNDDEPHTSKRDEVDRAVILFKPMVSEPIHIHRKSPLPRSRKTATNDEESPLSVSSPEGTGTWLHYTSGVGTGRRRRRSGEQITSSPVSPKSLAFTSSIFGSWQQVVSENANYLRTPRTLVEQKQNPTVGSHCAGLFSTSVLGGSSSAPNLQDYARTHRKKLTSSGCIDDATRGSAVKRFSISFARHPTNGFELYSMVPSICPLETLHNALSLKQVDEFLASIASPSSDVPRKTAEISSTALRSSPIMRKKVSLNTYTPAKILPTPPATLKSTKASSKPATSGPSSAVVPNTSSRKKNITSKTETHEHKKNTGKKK
UniProt Q9NVS9: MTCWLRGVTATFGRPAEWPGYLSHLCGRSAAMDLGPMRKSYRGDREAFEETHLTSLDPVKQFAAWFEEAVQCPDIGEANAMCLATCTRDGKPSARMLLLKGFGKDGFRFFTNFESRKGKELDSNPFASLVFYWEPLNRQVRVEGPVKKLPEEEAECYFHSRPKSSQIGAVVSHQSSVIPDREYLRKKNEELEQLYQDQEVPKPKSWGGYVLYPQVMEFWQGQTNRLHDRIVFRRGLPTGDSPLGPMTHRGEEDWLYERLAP
UniProt Q6P1K2: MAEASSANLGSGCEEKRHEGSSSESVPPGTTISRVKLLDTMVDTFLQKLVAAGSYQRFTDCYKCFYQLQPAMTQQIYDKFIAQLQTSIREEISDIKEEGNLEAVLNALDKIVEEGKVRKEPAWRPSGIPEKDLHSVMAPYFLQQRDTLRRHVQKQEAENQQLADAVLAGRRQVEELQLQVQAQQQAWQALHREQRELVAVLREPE
UniProt Q9UHN1: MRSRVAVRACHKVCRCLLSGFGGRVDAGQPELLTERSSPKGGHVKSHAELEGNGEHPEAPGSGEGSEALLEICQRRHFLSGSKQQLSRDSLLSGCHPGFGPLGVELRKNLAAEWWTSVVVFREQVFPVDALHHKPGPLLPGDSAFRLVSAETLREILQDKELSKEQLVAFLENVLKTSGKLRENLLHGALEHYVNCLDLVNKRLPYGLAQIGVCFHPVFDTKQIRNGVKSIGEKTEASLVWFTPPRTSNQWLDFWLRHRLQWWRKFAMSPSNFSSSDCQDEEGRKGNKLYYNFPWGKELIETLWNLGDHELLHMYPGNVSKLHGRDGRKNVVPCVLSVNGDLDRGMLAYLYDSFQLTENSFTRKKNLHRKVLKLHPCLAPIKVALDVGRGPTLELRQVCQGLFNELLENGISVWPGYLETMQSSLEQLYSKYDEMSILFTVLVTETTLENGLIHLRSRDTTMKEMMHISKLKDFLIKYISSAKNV
UniProt O60568: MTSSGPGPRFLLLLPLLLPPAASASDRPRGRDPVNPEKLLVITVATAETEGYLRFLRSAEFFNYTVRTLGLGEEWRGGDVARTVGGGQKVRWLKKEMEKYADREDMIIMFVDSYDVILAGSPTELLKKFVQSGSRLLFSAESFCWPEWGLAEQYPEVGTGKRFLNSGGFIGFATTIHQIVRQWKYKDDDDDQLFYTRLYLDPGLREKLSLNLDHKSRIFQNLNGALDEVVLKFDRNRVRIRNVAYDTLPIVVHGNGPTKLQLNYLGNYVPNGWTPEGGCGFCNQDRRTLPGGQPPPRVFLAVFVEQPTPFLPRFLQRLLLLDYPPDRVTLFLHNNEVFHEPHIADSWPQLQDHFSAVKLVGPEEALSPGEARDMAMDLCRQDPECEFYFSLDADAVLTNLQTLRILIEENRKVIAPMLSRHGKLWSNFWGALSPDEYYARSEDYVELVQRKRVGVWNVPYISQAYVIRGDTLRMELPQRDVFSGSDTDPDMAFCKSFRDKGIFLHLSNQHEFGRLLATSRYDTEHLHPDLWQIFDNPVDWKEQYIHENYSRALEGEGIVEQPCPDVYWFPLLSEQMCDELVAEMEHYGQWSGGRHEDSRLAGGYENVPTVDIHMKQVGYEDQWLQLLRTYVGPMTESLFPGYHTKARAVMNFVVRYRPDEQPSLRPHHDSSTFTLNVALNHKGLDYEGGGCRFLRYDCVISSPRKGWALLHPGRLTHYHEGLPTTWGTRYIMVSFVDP
UniProt Q9NRX1: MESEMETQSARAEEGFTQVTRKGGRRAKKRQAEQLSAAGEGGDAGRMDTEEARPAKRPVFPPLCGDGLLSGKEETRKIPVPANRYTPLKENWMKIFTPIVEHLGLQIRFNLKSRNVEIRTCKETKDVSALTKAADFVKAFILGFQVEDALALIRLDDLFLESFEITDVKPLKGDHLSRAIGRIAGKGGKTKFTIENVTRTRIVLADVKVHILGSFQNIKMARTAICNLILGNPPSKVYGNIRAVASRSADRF
UniProt O60664: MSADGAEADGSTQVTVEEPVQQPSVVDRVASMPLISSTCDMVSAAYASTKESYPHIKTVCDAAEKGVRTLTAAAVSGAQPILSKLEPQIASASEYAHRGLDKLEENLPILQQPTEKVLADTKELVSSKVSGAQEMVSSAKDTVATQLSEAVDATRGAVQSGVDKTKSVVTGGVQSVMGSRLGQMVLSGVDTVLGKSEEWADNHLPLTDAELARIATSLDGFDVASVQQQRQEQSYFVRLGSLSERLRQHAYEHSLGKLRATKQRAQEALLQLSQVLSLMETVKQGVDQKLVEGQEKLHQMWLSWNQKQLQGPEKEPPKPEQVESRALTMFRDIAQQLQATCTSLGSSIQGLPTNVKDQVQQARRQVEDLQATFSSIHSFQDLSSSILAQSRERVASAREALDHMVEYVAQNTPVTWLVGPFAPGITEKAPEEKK
UniProt Q8WZA1: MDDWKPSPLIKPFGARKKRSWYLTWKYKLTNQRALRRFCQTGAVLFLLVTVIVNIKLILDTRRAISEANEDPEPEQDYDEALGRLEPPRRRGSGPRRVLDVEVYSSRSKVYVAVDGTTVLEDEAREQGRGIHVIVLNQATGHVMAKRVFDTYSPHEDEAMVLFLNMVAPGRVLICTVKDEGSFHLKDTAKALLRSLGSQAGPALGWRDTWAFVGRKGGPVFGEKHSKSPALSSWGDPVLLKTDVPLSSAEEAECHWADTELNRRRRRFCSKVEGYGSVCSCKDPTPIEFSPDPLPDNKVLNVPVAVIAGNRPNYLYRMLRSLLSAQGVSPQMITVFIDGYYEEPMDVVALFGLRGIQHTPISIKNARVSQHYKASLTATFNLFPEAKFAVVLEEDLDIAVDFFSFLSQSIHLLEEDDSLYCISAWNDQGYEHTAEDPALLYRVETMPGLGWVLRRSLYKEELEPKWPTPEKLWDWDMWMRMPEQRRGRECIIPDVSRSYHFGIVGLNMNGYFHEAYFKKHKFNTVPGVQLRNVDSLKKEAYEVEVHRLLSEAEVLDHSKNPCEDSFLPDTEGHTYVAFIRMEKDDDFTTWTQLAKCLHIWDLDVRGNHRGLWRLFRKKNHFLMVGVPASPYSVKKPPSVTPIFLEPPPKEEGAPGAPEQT
UniProt O75817: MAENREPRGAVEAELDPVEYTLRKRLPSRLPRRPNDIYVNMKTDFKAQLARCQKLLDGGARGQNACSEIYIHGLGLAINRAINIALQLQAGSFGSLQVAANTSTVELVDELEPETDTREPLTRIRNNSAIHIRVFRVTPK
UniProt Q06203, whole entry, looked up: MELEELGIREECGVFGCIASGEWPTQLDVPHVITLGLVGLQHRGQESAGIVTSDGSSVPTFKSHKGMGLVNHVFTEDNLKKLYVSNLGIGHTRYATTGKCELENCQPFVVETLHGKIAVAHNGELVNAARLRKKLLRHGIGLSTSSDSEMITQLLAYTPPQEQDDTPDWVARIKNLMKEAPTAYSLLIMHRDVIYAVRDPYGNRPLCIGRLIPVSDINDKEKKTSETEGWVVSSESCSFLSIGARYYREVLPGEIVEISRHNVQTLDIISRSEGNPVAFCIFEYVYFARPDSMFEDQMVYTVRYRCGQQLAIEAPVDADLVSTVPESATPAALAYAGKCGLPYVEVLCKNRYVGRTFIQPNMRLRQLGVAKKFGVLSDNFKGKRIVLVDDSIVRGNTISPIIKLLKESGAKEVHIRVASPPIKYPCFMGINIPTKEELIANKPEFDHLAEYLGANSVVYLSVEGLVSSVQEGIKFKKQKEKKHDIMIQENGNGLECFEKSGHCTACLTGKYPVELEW
UniProt Q9H2U2: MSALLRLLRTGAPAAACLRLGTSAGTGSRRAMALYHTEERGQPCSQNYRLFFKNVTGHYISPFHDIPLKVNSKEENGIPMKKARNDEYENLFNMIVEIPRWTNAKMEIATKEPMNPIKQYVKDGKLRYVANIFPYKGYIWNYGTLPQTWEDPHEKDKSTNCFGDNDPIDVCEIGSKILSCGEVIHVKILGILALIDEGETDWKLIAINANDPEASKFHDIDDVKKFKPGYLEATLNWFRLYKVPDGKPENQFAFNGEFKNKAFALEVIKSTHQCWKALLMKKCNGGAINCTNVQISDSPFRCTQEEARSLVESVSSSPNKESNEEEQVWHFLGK
UniProt Q969H6: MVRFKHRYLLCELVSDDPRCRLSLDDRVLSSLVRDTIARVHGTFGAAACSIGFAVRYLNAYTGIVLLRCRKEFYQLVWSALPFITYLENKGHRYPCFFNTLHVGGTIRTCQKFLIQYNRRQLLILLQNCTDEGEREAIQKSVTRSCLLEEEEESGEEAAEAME
UniProt Q9Y2S7: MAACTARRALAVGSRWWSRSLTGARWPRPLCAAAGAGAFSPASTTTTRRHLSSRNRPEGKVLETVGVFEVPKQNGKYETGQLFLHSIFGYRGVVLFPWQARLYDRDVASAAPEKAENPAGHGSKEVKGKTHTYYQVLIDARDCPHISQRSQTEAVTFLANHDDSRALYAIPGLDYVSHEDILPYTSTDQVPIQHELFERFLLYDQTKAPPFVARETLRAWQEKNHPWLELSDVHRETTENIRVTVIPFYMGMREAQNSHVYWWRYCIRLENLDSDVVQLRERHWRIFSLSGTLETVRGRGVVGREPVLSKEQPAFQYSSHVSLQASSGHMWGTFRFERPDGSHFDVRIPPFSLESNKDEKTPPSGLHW

compound: CN1CCN(c2nc(C3=C(c4c[nH]c5ccccc45)C(=O)NC3=O)c3ccccc3n2)CC1 [sotrastaurin]; experiment: log2 fold change, soluble protein after heating vs DMSO (PISA); higher = thermal stabilisation; K562 cells, 10 uM, 30 min; active = over 0.2 and 3.5 SD of the protein, either way, in both replicates (recomputed)
Summary of the method: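 K562 cells at 2×10^6 cells/mL were exposed to 10 μM compound for 30 min, then aliquots were heated for 3 min across 48°C-58°C, pooled, and extracted in PBS containing 0.5% NP-40 at 4°C. The supernatant after 21,000xg for 90 min was taken as soluble protein and measured by TMTpro 16plex LC-MS/MS with channel sums equalised. Thermal stability is reported relative to control samples, with values from duplicates. Fold changes are given on a log2 scale.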

Target	log2 fold change
POFUT2 (UniProt Q9Y2G5)	inactive: -0.04
PPIA (UniProt P62937)	inactive: -0.01
POLR3C (UniProt Q9BUI4)	inactive: 0.004
POFUT1 (UniProt Q9H488)	inactive: 0.027
PPM1B (UniProt O75688)	inactive: 0.031
PPIP5K2 (UniProt O43314)	inactive: 0.016
PNPO (UniProt Q9NVS9)	inactive: -0.057
POLDIP3 (UniProt Q9BY77)	inactive: -0.005
PPFIA1 (UniProt Q13136)	inactive: -0.028
PMF1 (UniProt Q6P1K2)	inactive: -0.101
POLG2 (UniProt Q9UHN1)	inactive: 0.059
PLOD3 (UniProt O60568)	inactive: 0.008
PLXNB2 (UniProt O15031)	inactive: 0.067
PNO1 (UniProt Q9NRX1)	inactive: -0.057
PLIN3 (UniProt O60664)	inactive: -0.003
POMGNT1 isoform 2 (UniProt Q8WZA1)	inactive: 0.095
POP7 (UniProt O75817)	inactive: 0.085
PPAT (UniProt Q06203)	inactive: 0.024
PPAN isoform 3 (UniProt Q9NQ55)	inactive: 0.01
PPA2 (UniProt Q9H2U2)	inactive: 0.055
POP5 (UniProt Q969H6)	inactive: 0.117
POSTN (UniProt Q15063)	inactive: 0.147
POLDIP2 (UniProt Q9Y2S7)	inactive: 0.013

Look-ups from the list:
log2 fold change with POLR3C (UniProt Q9BUI4) is entered as inactive: 0.004
log2 fold change with POFUT2 (UniProt Q9Y2G5) is entered as inactive: -0.04
